These results are taken from publication PMC3794586.

Sequences of proteins named here, by UniProt entry; tags and fusion partners are left off.
UniProt Q13526: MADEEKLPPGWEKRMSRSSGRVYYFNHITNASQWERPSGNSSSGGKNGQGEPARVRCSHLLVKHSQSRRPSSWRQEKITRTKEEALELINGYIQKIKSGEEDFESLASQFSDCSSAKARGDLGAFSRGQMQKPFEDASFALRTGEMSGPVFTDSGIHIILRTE
UniProt P04150: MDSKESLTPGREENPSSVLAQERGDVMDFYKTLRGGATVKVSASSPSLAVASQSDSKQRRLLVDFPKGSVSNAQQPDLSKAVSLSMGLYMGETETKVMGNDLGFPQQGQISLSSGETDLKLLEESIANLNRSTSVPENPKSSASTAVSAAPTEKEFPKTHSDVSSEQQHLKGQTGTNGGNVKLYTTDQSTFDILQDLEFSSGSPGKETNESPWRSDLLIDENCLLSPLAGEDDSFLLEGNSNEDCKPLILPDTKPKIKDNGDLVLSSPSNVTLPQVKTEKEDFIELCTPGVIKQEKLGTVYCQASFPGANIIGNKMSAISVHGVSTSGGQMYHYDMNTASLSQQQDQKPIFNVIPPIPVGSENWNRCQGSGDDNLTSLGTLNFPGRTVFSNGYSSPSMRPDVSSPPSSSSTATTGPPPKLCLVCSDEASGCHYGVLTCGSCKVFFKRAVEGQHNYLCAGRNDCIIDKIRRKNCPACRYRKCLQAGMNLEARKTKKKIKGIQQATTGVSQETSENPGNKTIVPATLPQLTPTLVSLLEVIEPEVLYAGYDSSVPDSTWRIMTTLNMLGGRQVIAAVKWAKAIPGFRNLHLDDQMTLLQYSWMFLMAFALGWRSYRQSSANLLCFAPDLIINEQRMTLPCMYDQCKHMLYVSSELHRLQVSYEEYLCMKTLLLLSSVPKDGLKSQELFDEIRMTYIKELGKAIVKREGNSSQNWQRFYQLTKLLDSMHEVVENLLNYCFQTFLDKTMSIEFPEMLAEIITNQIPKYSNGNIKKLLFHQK
UniProt Q15596: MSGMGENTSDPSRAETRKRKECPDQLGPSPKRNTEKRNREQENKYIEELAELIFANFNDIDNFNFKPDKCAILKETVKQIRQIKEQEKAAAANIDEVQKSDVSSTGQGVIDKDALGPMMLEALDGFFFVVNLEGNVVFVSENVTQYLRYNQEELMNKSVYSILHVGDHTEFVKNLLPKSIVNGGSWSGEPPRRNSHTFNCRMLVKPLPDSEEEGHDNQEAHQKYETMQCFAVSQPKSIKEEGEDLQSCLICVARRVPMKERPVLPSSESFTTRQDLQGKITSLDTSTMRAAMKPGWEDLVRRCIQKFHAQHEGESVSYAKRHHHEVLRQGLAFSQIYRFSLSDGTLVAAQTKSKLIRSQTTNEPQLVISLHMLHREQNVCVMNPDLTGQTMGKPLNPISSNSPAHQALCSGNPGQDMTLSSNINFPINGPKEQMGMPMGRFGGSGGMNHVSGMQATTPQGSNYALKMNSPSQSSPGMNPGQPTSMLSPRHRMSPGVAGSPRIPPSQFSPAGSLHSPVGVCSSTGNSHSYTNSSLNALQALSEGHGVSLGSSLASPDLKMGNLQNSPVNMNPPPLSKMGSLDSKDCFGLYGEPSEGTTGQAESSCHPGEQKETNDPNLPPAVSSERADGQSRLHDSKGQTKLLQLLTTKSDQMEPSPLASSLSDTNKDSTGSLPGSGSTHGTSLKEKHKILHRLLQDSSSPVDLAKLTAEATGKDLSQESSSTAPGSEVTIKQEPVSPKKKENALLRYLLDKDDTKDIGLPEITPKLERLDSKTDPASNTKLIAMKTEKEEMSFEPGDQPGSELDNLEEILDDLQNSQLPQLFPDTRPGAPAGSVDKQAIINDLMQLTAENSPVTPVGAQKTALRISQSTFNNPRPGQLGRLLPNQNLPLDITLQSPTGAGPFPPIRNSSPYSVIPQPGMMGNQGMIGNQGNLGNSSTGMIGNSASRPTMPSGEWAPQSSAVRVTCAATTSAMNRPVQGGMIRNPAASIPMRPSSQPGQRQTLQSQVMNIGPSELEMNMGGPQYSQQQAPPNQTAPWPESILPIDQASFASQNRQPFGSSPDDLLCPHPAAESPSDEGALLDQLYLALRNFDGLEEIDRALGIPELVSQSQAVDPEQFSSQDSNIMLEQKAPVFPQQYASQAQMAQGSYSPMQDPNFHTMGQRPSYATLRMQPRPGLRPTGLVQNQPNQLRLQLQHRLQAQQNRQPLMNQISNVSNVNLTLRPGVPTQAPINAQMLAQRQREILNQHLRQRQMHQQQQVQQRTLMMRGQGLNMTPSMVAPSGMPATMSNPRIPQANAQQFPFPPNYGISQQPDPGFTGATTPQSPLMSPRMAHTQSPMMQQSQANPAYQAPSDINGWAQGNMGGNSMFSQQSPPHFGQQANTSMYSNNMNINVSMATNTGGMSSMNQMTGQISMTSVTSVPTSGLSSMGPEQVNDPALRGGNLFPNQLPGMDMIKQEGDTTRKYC

The target of experiment [1] is Pin1 (human (endogenous in A549)) (UniProt Q13526). The experiment in a line: co-IP; endogenous proteins immunoprecipitated from A549 cell lysates (500 µg total protein, 2 µg antibody, 1 h at 4°C, Protein A or G; lysis buffer 250 mM NaCl, 20 mM Bicine pH 7.4, 0.5% IGEPAL; extracts DNase treated; six washes), immunoblot; cells treated with DEX (100 nM) for the indicated time or 1 h.

The target in experiment [2] is glucocorticoid receptor (GR) (human (endogenous in A549)) (UniProt P04150). The description is as above.

These are yes or no findings as the source states them, for the method shown. Binding seen in cells or lysates may run through a third protein. Some entries that bind do so weakly or less than the wild type.

With “glucocorticoid receptor (GR) (from UniProt P04150 1-777)”, the binding entry in experiment [1] was “binds”.

Consider SRC-2 (from UniProt Q15596 1-1464), for which the binding entry in experiment [1] is given as “no binding”.

As to “Pin1 (from UniProt Q13526 1-163) (enzyme)”, the binding entry in experiment [2] is on record as “binds”.
